The record followed here is US5100873A (priority 1988, dated 1992).

The series in a line: general procedure: solution-phase peptide synthesis; DCC/HOBt; ECC/NMM (mixed anhydride). The following applies: HCl.

Strings that start with PEPTIDE1 are HELM notation: dots part the residues, brackets hold end groups and non-standard residues.

For the substance “PEPTIDE1{[Boc].[pMel].Q.W.A.V.G}$$$$V2.0”, the step yield (late stage modification step) came to 63%. Regarding “PEPTIDE1{[Boc].[mMel].L.G.T.Q.W.A.V.G.L.M.[am]}$$$$V2.0”, the step yield (coupling step) was 72.7%. The substance “PEPTIDE1{[pMel].Q.W.A.V.G.H.L.M.[am]}$$$$V2.0” gave a step yield (late stage modification step) of 91%. “PEPTIDE1{[Boc].[pMel].Q.W.A.V.G.[dF].L.M.[am]}$$$$V2.0” registered a step yield (coupling step) of 88.8%. “H-pMel-Gln-Trp-Ala-Val-Gly-His(Dnp)-Leu-Met-NH2.HCl” gave a step yield (late stage modification step) of 83.5%. Take “Boc-pMel-Gln-Trp-Ala-Gly-His(Dnp)-Leu-Met-NH2”: the step yield (coupling step) worked out at 95.6%. Boc-pMel-Gln-Trp-Ala-Val-Gly-OBzl: the step yield (coupling step) turned out to be 91.5%.
